Results as given in the supplement of paper PMC6078165.
The reference is the same well before dosing, and untreated signal decays as well.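 Fibroblast labels denote human fibroblasts, mainly primary ones from uterus (C12385, HUF), lung (H6013), bone (Hs27A), adrenal (HADF) and skin (WS1), plus mammary HMF and breast cancer-associated Hs343T. Cancer cells are basal-like or mesenchymal-like triple-negative breast cancer lines. A hit is a response shift exceeding 3x replicate standard deviation. The tissue of the other fibroblasts is not given here.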

Tested on: MDAMB436
Assay: relative JC-1 red fluorescence (viability) vs pre-drug, coculture with fibroblast (fraction); higher = more viable cancer cells
Method: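 JC-1 labelled TNBC cells cocultured 1:1 (1,500 cells each) with CellTrace Violet stained primary or stromal fibroblasts in 384-well plates in FluoroBrite medium, treated with one of 42 anticancer drugs at 0.1, 1, 10 or 100 uM. JC-1 red fluorescence (mitochondrial integrity in cancer cells only) was read by plate reader every 8 h for 72 h. Values are normalised to each well's pre-drug value. The stock of one drug was tenfold lower, so its dose labels may be too high.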

O=C1c2c(O)ccc(O)c2C(=O)c2c(NCCNCCO)ccc(NCCNCCO)c21 [Mitoxantrone]
relative JC-1 red fluorescence
Settings | 8 h | 16 h | 24 h | 32 h | 40 h | 48 h | 56 h | 64 h | 72 h
0.1 µM, coculture fibroblast: C12385 | 0.77771 | 0.6896 | 0.65 | 0.587 | 0.546 | 0.529 | 0.514 | 0.501 | 0.494
0.1 µM, coculture fibroblast: H6013 | 0.8145 | 0.7653 | 0.74 | 0.737 | 0.716 | 0.731 | 0.703 | 0.683 | 0.647
0.1 µM, coculture fibroblast: H6019 | 0.736 | 0.636 | 0.631 | 0.576 | 0.543 | 0.525 | 0.496 | 0.476 | 0.455
0.1 µM, coculture fibroblast: H6076 | 0.743 | 0.6383 | 0.637 | 0.617 | 0.61 | 0.592 | 0.601 | 0.613 | 0.616
0.1 µM, coculture fibroblast: H6231 | 0.748 | 0.677 | 0.667 | 0.615 | 0.605 | 0.583 | 0.56 | 0.537 | 0.516
0.1 µM, coculture fibroblast: HADF | 0.791 | 0.738 | 0.744 | 0.753 | 0.758 | 0.788 | 0.754 | 0.756 | 0.72
0.1 µM, coculture fibroblast: HCFa | 0.7394 | 0.6496 | 0.6317 | 0.616 | 0.6 | 0.61 | 0.558 | 0.539 | 0.493
0.1 µM, coculture fibroblast: HCPF | 0.791 | 0.725 | 0.68684 | 0.645 | 0.625 | 0.593 | 0.564 | 0.549 | 0.524
0.1 µM, coculture fibroblast: HHSteC | 0.843 | 0.834 | 0.796 | 0.793 | 0.783 | 0.803 | 0.745 | 0.729 | 0.668
0.1 µM, coculture fibroblast: HMF | 0.7604 | 0.6627 | 0.613 | 0.5805 | 0.5657 | 0.5384 | 0.53 | 0.516 | 0.509
0.1 µM, coculture fibroblast: HPFa | 0.8048 | 0.733 | 0.7064 | 0.669 | 0.6512 | 0.664 | 0.595 | 0.568 | 0.516
0.1 µM, coculture fibroblast: HUF | 0.82 | 0.723 | 0.71 | 0.651 | 0.609 | 0.58 | 0.566 | 0.558 | 0.548
0.1 µM, coculture fibroblast: Hs5 | 0.767 | 0.71662 | 0.696 | 0.651 | 0.649 | 0.611 | 0.624 | 0.599 | 0.596
0.1 µM, coculture fibroblast: Hs27A | 0.749 | 0.669 | 0.654 | 0.6535 | 0.636 | 0.67094 | 0.63 | 0.625 | 0.5769
0.1 µM, coculture fibroblast: Hs343T | 0.775 | 0.685 | 0.656 | 0.631 | 0.611 | 0.577 | 0.564 | 0.546 | 0.529
0.1 µM, coculture fibroblast: WS1 | 0.771 | 0.675 | 0.652 | 0.589 | 0.559 | 0.552 | 0.534 | 0.517 | 0.506
1 µM, coculture fibroblast: C12385 | 0.598 | 0.596 | 0.6214 | 0.5723 | 0.5623 | 0.5535 | 0.5488 | 0.5457 | 0.5439
1 µM, coculture fibroblast: H6013 | 0.615 | 0.6327 | 0.6238 | 0.6359 | 0.649 | 0.67 | 0.641 | 0.625 | 0.5795
1 µM, coculture fibroblast: H6019 | 0.618 | 0.597 | 0.629 | 0.597 | 0.59 | 0.598 | 0.587 | 0.577 | 0.562
1 µM, coculture fibroblast: H6076 | 0.689 | 0.647 | 0.676 | 0.647 | 0.634 | 0.615 | 0.607 | 0.606 | 0.59
1 µM, coculture fibroblast: H6231 | 0.743 | 0.648 | 0.71209 | 0.6522 | 0.641 | 0.626 | 0.632 | 0.613 | 0.594
1 µM, coculture fibroblast: HADF | 0.607 | 0.633 | 0.639 | 0.646 | 0.674 | 0.713 | 0.679 | 0.685 | 0.639
1 µM, coculture fibroblast: HCFa | 0.63 | 0.635 | 0.637 | 0.646 | 0.659 | 0.696 | 0.652 | 0.642 | 0.593
1 µM, coculture fibroblast: HCPF | 0.666 | 0.634 | 0.676 | 0.6318 | 0.631 | 0.6142 | 0.605 | 0.584 | 0.575
1 µM, coculture fibroblast: HHSteC | 0.681 | 0.697 | 0.703 | 0.703 | 0.718 | 0.74 | 0.697 | 0.688 | 0.636
1 µM, coculture fibroblast: HMF | 0.737 | 0.632 | 0.632 | 0.603 | 0.582 | 0.554 | 0.55 | 0.529 | 0.51
1 µM, coculture fibroblast: HPFa | 0.693 | 0.63 | 0.622 | 0.617 | 0.633 | 0.667 | 0.613 | 0.611 | 0.57
1 µM, coculture fibroblast: HUF | 0.693 | 0.635 | 0.648 | 0.617 | 0.594 | 0.576 | 0.57 | 0.557 | 0.555
1 µM, coculture fibroblast: Hs5 | 0.694 | 0.6851 | 0.718 | 0.686 | 0.685 | 0.659 | 0.668 | 0.653 | 0.638
1 µM, coculture fibroblast: Hs27A | 0.631 | 0.628 | 0.676 | 0.693 | 0.723 | 0.79 | 0.735 | 0.738 | 0.667
1 µM, coculture fibroblast: Hs343T | 0.701 | 0.626 | 0.654 | 0.631 | 0.632 | 0.602 | 0.606 | 0.595 | 0.59
1 µM, coculture fibroblast: WS1 | 0.601 | 0.574 | 0.592 | 0.552 | 0.542 | 0.533 | 0.528 | 0.513 | 0.506
10 µM, coculture fibroblast: C12385 | 0.498 | 0.402 | 0.356 | 0.347 | 0.339 | 0.34 | 0.3 | 0.254 | 0.202
10 µM, coculture fibroblast: H6013 | 0.456 | 0.3572 | 0.317 | 0.341 | 0.336 | 0.33 | 0.276 | 0.221 | 0.147
10 µM, coculture fibroblast: H6019 | 0.563 | 0.4954 | 0.4372 | 0.406 | 0.4016 | 0.402 | 0.387 | 0.3549 | 0.323
10 µM, coculture fibroblast: H6076 | 0.53 | 0.404 | 0.269 | 0.168 | 0.0987 | 0.0586 | 0.0423 | 0.0255 | 0.0212
10 µM, coculture fibroblast: H6231 | 0.628 | 0.531 | 0.441 | 0.499 | 0.44 | 0.361 | 0.292 | 0.218 | 0.158
10 µM, coculture fibroblast: HADF | 0.416 | 0.305 | 0.28 | 0.321 | 0.3519 | 0.37726 | 0.329 | 0.294 | 0.209
10 µM, coculture fibroblast: HCFa | 0.484 | 0.379 | 0.298 | 0.335 | 0.361 | 0.384 | 0.331 | 0.282 | 0.182
10 µM, coculture fibroblast: HCPF | 0.626 | 0.5 | 0.452 | 0.322 | 0.259 | 0.165 | 0.0928 | 0.0364 | 0.00668
10 µM, coculture fibroblast: HHSteC | 0.527 | 0.483 | 0.472 | 0.503 | 0.49 | 0.483 | 0.403 | 0.356 | 0.257
10 µM, coculture fibroblast: HMF | 0.5483 | 0.428 | 0.3187 | 0.1888 | 0.17 | 0.102 | 0.0211 | 0.0291 | 0.0187
10 µM, coculture fibroblast: HPFa | 0.492 | 0.435 | 0.39 | 0.45 | 0.434 | 0.458 | 0.396 | 0.348 | 0.279
10 µM, coculture fibroblast: HUF | 0.536 | 0.426 | 0.422 | 0.4 | 0.37 | 0.347 | 0.3243 | 0.278 | 0.252
10 µM, coculture fibroblast: Hs5 | 0.641 | 0.537 | 0.433 | 0.379 | 0.366 | 0.256 | 0.228 | 0.144 | 0.0953
10 µM, coculture fibroblast: Hs27A | 0.511 | 0.467 | 0.492 | 0.589 | 0.555 | 0.5605 | 0.477 | 0.42 | 0.297
10 µM, coculture fibroblast: Hs343T | 0.531 | 0.408 | 0.299 | 0.214 | 0.174 | 0.112 | 0.0903 | 0.0393 | 0.0452
10 µM, coculture fibroblast: WS1 | 0.498 | 0.399 | 0.36 | 0.322 | 0.327 | 0.302 | 0.264 | 0.211 | 0.171
